The subject of this assay is 403 nonmutant kinases.

The structures appear in SMILES notation. A number of entries come with more than one value. This is not the full list of results. There may be further records. The values listed for one entry differ for a reason that is not stated; dose, time, organism, isomer or construct need not be as stated for each record.

Regarding `C=CC(=O)N1CCC(F)(CNc2ncnc(N)c2-c2ccc(Oc3ccccc3)cc2)CC1`, the selectivity ratio is recorded as 0.015, 0.005, 0.002.

For the origin of these results see publication PMC12426595 (Cancer Research Communications, 2025).
